Results reported in patent publication US20240270821A1 (priority 2023, published 2024).
Some peptides are written in HELM: one residue between dots, names in brackets for other building blocks, links after the first $.

Assay: general procedure: Fmoc solid-phase peptide synthesis; Fmoc-Rink-MBHA Low Loading Resin, 100-200 mesh, 1% DVB cross-linked polystyrene, 0.3-0.4 meq/g (EMD Millipore); diisopropylcarbodiimide/Oxyma; PyAOP/DIPEA for fatty acid-linker
Settings: whole synthesis, analytical RP-HPLC, TFA salt

## PEPTIDE1{Y.[Aib].Q.G.T.F.T.S.D.F.S.K.[aMeL].L.D.K.[Klip3066570].A.Q.[Aib].A.F.I.E.Y.L.L.A.G.G.P.S.S.G.E.P.P.P.S.E.G.[NH2]}$$$$V2.0
  final HPLC purity: 98.8%
